Our source for the binding signal values is paper PMC7819943, “Rice protein-binding microarrays: a tool to detect cis-acting elements near promoter regions in rice”.

Sequences of proteins named here, by UniProt entry; tags and fusion partners are left off.
UniProt Q0JBA9, entry or part of it: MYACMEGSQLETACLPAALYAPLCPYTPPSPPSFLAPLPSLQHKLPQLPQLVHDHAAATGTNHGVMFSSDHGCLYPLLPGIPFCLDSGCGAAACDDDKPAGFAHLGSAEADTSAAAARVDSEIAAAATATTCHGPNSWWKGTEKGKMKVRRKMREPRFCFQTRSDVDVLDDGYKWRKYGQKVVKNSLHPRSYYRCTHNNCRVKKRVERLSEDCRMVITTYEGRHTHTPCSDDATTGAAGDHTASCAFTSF

This is one part of the list.

The target of the assay is OsWRKY34 (Oryza sativa, UniProt Q0JBA9 1-250). The assay is described as follows: protein-binding microarray (RPBM); PBS, 2% BSA, 51.3 ng/ul salmon testes DNA, 50 uM zinc acetate, 200 nM TF, 25 C, 1 h; high values mean tight binding. The following applies: protein: recombinant; tags: N-terminal polyhistidine and DsRed monomer fusion (pET32a); label: CyDye5-dUTP incorporated in the synthesized complementary strand; 3' TTTTT single-stranded linker to array surface; dsDNA, one strand shown. A digest of the protocol:
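Binding signal is defined as the fluorescence intensity of each feature in arbitrary units, read on an Axon 4000B scanner. Transcription factors with N-terminal polyhistidine and DsRed fusions came from E. coli BL21-CodonPlus and were purified on Ni–NTA. They were incubated at 200 nM for 1 h at 25 °C on a custom Agilent array that had been made double-stranded with Cy5-dUTP, with 50 µM zinc acetate present, and the array was washed.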
As for “ATCTGGGTTGGGGCTATTGGTTCACTCTCAGGGATTTGGACGGAGTCACCTAGTGCAG”, the binding signal was 15200 fluorescence intensity (a.u.).
The same measure for “GTAGAAGCGCCTAACTTGTCGTTTGCTGTGGCTTGGGTTTCGGAGTCACCTAGTGCAG”: 8690 fluorescence intensity (a.u.).
In the case of “CCGGCATTCTCCATTGGAATCATTCTGACCATACCTGAACCGGAGTCACCTAGTGCAG”, the binding signal was 9180 fluorescence intensity (a.u.).
The same measure for “TATTTTTTGGGGTAAAATACTTCTTATACTATATTATTTTCGGAGTCACCTAGTGCAG”: 9100 fluorescence intensity (a.u.); for “AGTCACATTCTTTTCTTTTCTTAATTATACATCACGAATTCGGAGTCACCTAGTGCAG”: 8760 fluorescence intensity (a.u.).
The result for “ATCGTTCTTCCCGTGCCGCCGCCGCCGCCGCCGCTTCATCCGGAGTCACCTAGTGCAG” reads 12600 fluorescence intensity (a.u.); that for “CTCTTTTCTTTTCTCTCACACGCTTTGCCTTTTGCTGCCCCGGAGTCACCTAGTGCAG”, 9040 fluorescence intensity (a.u.); that for “TATAGCGAAATGTCAGCCTCTATCCATCCATCTGACATAACGGAGTCACCTAGTGCAG”, 9690 fluorescence intensity (a.u.).
The same measure for “CCAAACACTCATATAGCCAACTCTCCATCTGATTTAGCTACGGAGTCACCTAGTGCAG”: 8490 fluorescence intensity (a.u.).
As to “TCTTTGTTTCCCGCGTTTTGTTGGGGATTCGATTTTCGGGCGGAGTCACCTAGTGCAG”, the binding signal was 11100 fluorescence intensity (a.u.).
The result for “GGTTAAACCCAATCAGTGTGCTACCTCACCCCAACCCGGGCGGAGTCACCTAGTGCAG” reads 8380 fluorescence intensity (a.u.); that for “CTGGTCGGTTCCGCTGACCACCCGTGACTCTTACCACGACCGGAGTCACCTAGTGCAG”, 8880 fluorescence intensity (a.u.); that for “TTGCAAATTCCTCTTTTTCTTTCTCGGCTTGTTTGGTAACCGGAGTCACCTAGTGCAG”, 12200 fluorescence intensity (a.u.).
As to “ACATTTATTTAGCTCTGTTTGTATGTATGAATACATTAGTCGGAGTCACCTAGTGCAG”, the binding signal is 8090 fluorescence intensity (a.u.).
The result for “CTTTGTAGTTGGCTTTTTTCTGATAAATTTATTTCTTCAACGGAGTCACCTAGTGCAG” reads 14300 fluorescence intensity (a.u.); that for “TCGGTTCCTTTCGCGCCACTCATCAAACCAACCTGTGTCGCGGAGTCACCTAGTGCAG”, 8060 fluorescence intensity (a.u.).
The result for “TGCCGTTTGCTTCACTCCCACTGCTCCTCCTCCACGCGCGCGGAGTCACCTAGTGCAG” reads 9210 fluorescence intensity (a.u.); that for “GGCGGCAGGGAGGTTAGGGCTTTTTCTACTTCTATACATGCGGAGTCACCTAGTGCAG”, 14200 fluorescence intensity (a.u.).
The same measure for “TCACATGGATGCATACTTATCTATGTACTGTGGTATTTTCCGGAGTCACCTAGTGCAG”: 8050 fluorescence intensity (a.u.).
As for “TAATTGAAAAGGTTGCTTATTGAACATTGTTGTTTTCACTCGGAGTCACCTAGTGCAG”, the binding signal was 8130 fluorescence intensity (a.u.).
The same measure for “CATGGATATCAGCAATAGTAACATTGGCGCCATTCCCAACCGGAGTCACCTAGTGCAG”: 8920 fluorescence intensity (a.u.).
The same measure for “AGGTTATAAGATGTTTTGACTATGGTTAAAGTCAAACTGCCGGAGTCACCTAGTGCAG”: 9390 fluorescence intensity (a.u.); for “GTCACATTCAGTACTAGGTTGGTTTTTTTATGGGACGGATCGGAGTCACCTAGTGCAG”: 8960 fluorescence intensity (a.u.).
The result for “CGCTCAGTGGTCCCGTCGCATGCTACCATCTCCACTACCGCGGAGTCACCTAGTGCAG” reads 9740 fluorescence intensity (a.u.); that for “GCCAATGACGATAAGAGCAAAGACGGACGGGAGGGGAGGGCGGAGTCACCTAGTGCAG”, 10300 fluorescence intensity (a.u.).
On to “TACTACTTATATACTACTCACATTCGAATTTATCTTTTCTCGGAGTCACCTAGTGCAG”, for which the binding signal was 9590 fluorescence intensity (a.u.).
The result for “TAGTGTCAACCGAATATGACTGGGCTATCTGTTCGTTTCTCGGAGTCACCTAGTGCAG” reads 8090 fluorescence intensity (a.u.); that for “ATCCTTCTTTCCTCTTGCTCCGTGTGCTAAGCATACCGACCGGAGTCACCTAGTGCAG”, 9530 fluorescence intensity (a.u.).
The result for “TCCCACCCGTTTTTATTTTTCTCGGTGGTTAACTTATCTTCGGAGTCACCTAGTGCAG” reads 8170 fluorescence intensity (a.u.).
The same measure for “CTACTACTATCTCATTATGCTACGCTCGTTCCATCCTTTTCGGAGTCACCTAGTGCAG”: 11700 fluorescence intensity (a.u.); for “GATAGTAGTAGTCCACCGTACATAATTATTCTCACACCATCGGAGTCACCTAGTGCAG”: 8110 fluorescence intensity (a.u.); for “CAACATGATGGGATGGGAGTGATAGCTACGTACACTATTGCGGAGTCACCTAGTGCAG”: 8060 fluorescence intensity (a.u.).
“CTGGGAGTTCACATATATGGGCAGGGGCGGGCCCACAATGCGGAGTCACCTAGTGCAG”: the binding signal is 10400 fluorescence intensity (a.u.).
The same measure for “TTTCCCATTGCTATGCTTTTGCGTAAGGTGATCACCTGATCGGAGTCACCTAGTGCAG”: 9330 fluorescence intensity (a.u.); for “TGTGTTGCTCTCTCTTCACTTGGTTGGCGGCGGCGCTGCGCGGAGTCACCTAGTGCAG”: 8060 fluorescence intensity (a.u.).
The same measure for “GATTCGTCGTGTCCTTATTTTACTCCTGTAGACATCACCACGGAGTCACCTAGTGCAG”: 12700 fluorescence intensity (a.u.); for “ATGTAGGTCCCATTTAGGTTTGTTTTTATTTTAGTGCCACCGGAGTCACCTAGTGCAG”: 10400 fluorescence intensity (a.u.); for “AACTTAGTTGCTGATGGGGTGTGAGGTACCAAAATTTGTTCGGAGTCACCTAGTGCAG”: 10100 fluorescence intensity (a.u.).
As for “GGTTTCTCTTATTGACGGTTACCATGGTAATTAGGCTTATCGGAGTCACCTAGTGCAG”, the binding signal was 8280 fluorescence intensity (a.u.).
Take “GGGAGTATTGTCTTGTGTTCATTTGATTGTATATTGTACTCGGAGTCACCTAGTGCAG”: the binding signal was 8430 fluorescence intensity (a.u.).
The same measure for “CCTACGCCACTTCCCACTGAAGCCACTTCACCCTCAATTACGGAGTCACCTAGTGCAG”: 8430 fluorescence intensity (a.u.); for “GAAAGCTGGGGAAGGAGTTGGGCTTGCTGGGGTGCGTCAACGGAGTCACCTAGTGCAG”: 8290 fluorescence intensity (a.u.).
“TGCAGCTGCAGGCCAGCAGCCGTCACTCGATATCATATTCCGGAGTCACCTAGTGCAG”: the binding signal was 10400 fluorescence intensity (a.u.).
The result for “TCAACAGATGTATAATTTTCCTCCTCGCTTCATTTTCTTTCGGAGTCACCTAGTGCAG” reads 8080 fluorescence intensity (a.u.).
The same measure for “AAGCCTGCCTCACTCCACCAGCATGATGAAACATCACCTACGGAGTCACCTAGTGCAG”: 8490 fluorescence intensity (a.u.).
The result for “CGCTCACCGCCGCCGCTTCCCCGCCCACCCGCCTTAGCATCGGAGTCACCTAGTGCAG” reads 8420 fluorescence intensity (a.u.); that for “TGGTGGTGTGTTTTGTCAGTCAAAGTAGGCGCCCATACAACGGAGTCACCTAGTGCAG”, 10400 fluorescence intensity (a.u.).
As for “GAGTGGGGAGGAGGAGGCGGCGGCGGCGAGGTGTGCGCGGCGGAGTCACCTAGTGCAG”, the binding signal was 9470 fluorescence intensity (a.u.).
The result for “GCGCGGCGGAGGCGGTGGGGCAGAGGGTGTTCCACTTCGGCGGAGTCACCTAGTGCAG” reads 8380 fluorescence intensity (a.u.); that for “GTTTATATATATGTCTTGATCGATCCTCGTTCTTGATCCGCGGAGTCACCTAGTGCAG”, 9800 fluorescence intensity (a.u.); that for “TTGCGCTGAACTAATCACAGCCGTTGACTTGGATTTGTTCCGGAGTCACCTAGTGCAG”, 8360 fluorescence intensity (a.u.).
The same measure for “GCCGGCCACCACCACCACTCTCTACTCCGGCGACATCATGCGGAGTCACCTAGTGCAG”: 8200 fluorescence intensity (a.u.).
The result for “CAACCTCGCCATCTTTCCCTGACATGTCGCTCACCGCTATCGGAGTCACCTAGTGCAG” reads 8070 fluorescence intensity (a.u.); that for “CATGTCATTTTTTGTTCTAGGTGACAACTTATTTAATACTCGGAGTCACCTAGTGCAG”, 9110 fluorescence intensity (a.u.).
